Source: the supplement of paper PMC3334620
In all, about 33,000 sequences were measured (“E-score (-0.5 to 0.5)”: median about -0.0014, highest 2% from about 0.25 on). The list shows a part of the results.

target: T1, Cad1 (UniProt P24813); test: PBM E-score (8-mer binding enrichment) (E-score (-0.5 to 0.5)); higher = stronger / more preferred TF binding; conditions: protein concentration: 100 nM; construct: GST-full length
T1 sequence: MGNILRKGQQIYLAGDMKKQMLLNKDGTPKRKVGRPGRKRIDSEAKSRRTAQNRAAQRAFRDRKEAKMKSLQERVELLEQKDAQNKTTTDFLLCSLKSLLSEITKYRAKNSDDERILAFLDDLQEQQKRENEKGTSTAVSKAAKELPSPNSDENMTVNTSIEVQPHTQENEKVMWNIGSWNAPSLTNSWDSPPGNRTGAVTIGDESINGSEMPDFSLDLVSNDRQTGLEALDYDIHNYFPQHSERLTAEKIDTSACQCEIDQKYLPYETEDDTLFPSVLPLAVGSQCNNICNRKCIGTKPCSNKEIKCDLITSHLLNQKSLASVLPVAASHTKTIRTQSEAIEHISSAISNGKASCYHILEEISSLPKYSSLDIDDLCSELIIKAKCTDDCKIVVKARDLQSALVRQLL
Protocol: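 Universal 'all 10-mer' protein binding microarrays (Agilent AMADID 015681) probed with GST-tagged S. cerevisiae TFs (full-length or DBD) made by in vitro transcription/translation (PURExpress), about 100-200 nM. Bound TF was detected with fluorescent anti-GST. Each ungapped 8-mer (which stands for itself and its reverse complement) is scored by the PBM enrichment score (E-score), a modified Wilcoxon-Mann-Whitney statistic from -0.5 to +0.5, computed with the Universal PBM Analysis Suite. Scale: above 0.35 generally sequence-specific binding.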

| Sequence | PBM E-score |
| --- | --- |
| GAAAACGA | 0.144 |
| AAAAAAAT | 0.162 |
| GAGAAAAC | 0.117 |
| AAATTACC | 0.081 |
| AGAGTAGC | -0.144 |
| TATCAGAA | 0.119 |
| TCCGACCA | -0.0796 |
| CTGCAGTC | -0.0585 |
| AATATAGT | 0.281 |
| ATATGAAA | 0.132 |
| ATAATTGG | -0.0135 |
| GTATTATA | 0.224 |
| ATAACCGG | -0.204 |
| AGACTATG | -0.104 |
| ATGAGTTC | 0.0316 |
| CATGGTCG | -0.0949 |
| GGCAACCC | -0.174 |
| AGGCGGCA | -0.163 |
| CCTAAGAC | -0.205 |
| AACTCGGG | -0.0211 |
| AGATGTCG | -0.0881 |
| ACCCGCGA | 0.0834 |
| AGTTGTCG | 0.0856 |
| GAAATGGA | -0.0458 |
| ACTATGCT | 0.123 |

| Sequence | PBM E-score |
| --- | --- |
| CAACACTA | 0.19 |
| AACACATT | 0.157 |
| CAGGAATG | -0.127 |
| CGTGGAGC | 0.0027 |
| ATCCGTAA | 0.073 |
| TCGCGCAA | 0.27 |
| ACAAGGCG | -0.0345 |
| TTAAATAA | 0.139 |
| TGAGTAAA | 0.00963 |
| ACTTGGAT | 0.153 |
| GGATAGGA | -0.00441 |
| GAGCAGAA | 0.0066 |
| CGCGCCTA | 0.184 |
| GGAGAGCA | -0.203 |
| CATAGATG | -0.228 |
| GAGGGCGC | -0.0389 |
| GAGTTAAA | 0.0147 |
| GGAAGGAC | -0.0619 |
| GACGCAGA | 0.0101 |
| AAATTGCT | 0.127 |
| CGCAGCAA | -0.0384 |
| CCTGGGTC | -0.177 |
| AGTTGATG | 0.0479 |
| AAGTACAG | -0.0834 |
| ATCTGAAG | -0.139 |

| Sequence | PBM E-score |
| --- | --- |
| AATCGTTC | 0.0436 |
| CGTCCAAG | -0.083 |
| ATCTTATC | 0.19 |
| TGTCTAAA | 0.177 |
| ACCCACAC | 0.137 |
| GGGCGCTA | -0.179 |
| ATCCCAAG | -0.0569 |
| ATTTGTTA | 0.203 |
| GAGATTAA | 0.0578 |
| CCACAGTA | 0.0727 |
| ACGGGCAG | -0.0111 |
| CATTAATG | 0.198 |
| AGAGGCTC | -0.143 |
| CTTGGTAC | 0.183 |
| AATATGCC | -0.182 |
| CTTTTCAC | 0.126 |
| CTGATTAA | 0.362 |
| GGGACTAC | -0.154 |
| CAATGCAC | -0.0659 |
| CGAGCGGA | -0.0607 |
| CAGTAATA | 0.249 |
| CCTCGGAA | 0.152 |
| CAAGCGAC | -0.0531 |
| GCTTAGCA | 0.122 |
| ACTCATAG | -0.0684 |

| Sequence | PBM E-score |
| --- | --- |
| CCTCGTGC | -0.0281 |
| ATACGTTA | -0.0175 |
| AACGATAG | 0.0593 |
| CTAGCCCC | -0.0928 |
| ATCAGAGC | 0.0403 |
| GCACTAGA | -0.0697 |
| ACATGGAT | 0.0578 |
| AACTGCGT | 0.107 |
| AAAATTAT | 0.285 |
| CATCTTTA | 0.0991 |
| ATAGTCCC | -0.0911 |
| ATCCGGAA | 0.22 |
| AACGACAC | 0.00382 |
| ACCCTCTA | -0.192 |
| GATGAACA | 0.139 |
| CTTGTTTC | 0.029 |
| ATCTTCAT | -0.073 |
| GTAGTCCA | -0.154 |
| CTCCTCAC | -0.203 |
| GCTATCGA | -0.0158 |
| AAAGGGTC | -0.206 |
| AGGGCACG | -0.144 |
| GCGCGGCA | 0.0659 |
| TACCGTAA | 0.0192 |
| AGTCCAAT | 0.117 |

| Sequence | PBM E-score |
| --- | --- |
| TCAACACA | 0.226 |
| CTCAATAA | -0.0752 |
| CTTGGTGC | -0.0501 |
| CCTGCACA | -0.161 |
| ATGCATAA | 0.213 |
| CCCGGTAC | -0.274 |
| ATGCATCC | 0.0114 |
| GAATCCTA | 0.192 |
| AACGGCAA | 0.0972 |
| GCGACCAA | 0.164 |
| CGCGTAAA | 0.239 |
| TCTCTTCA | -0.124 |
| AAAGCCTA | -0.0751 |
| ATGTGTTA | 0.175 |
| CTCCCCAG | -0.344 |
| TAGGTGAA | 0.0224 |
| CTAGGGCA | -0.353 |
| AGTCTCGC | 0.018 |
| ACCCTAAG | -0.101 |
| CATTCATA | 0.196 |
| CTCAGGGC | -0.0254 |
| CTGCCTCC | -0.304 |
| TTAACCAA | 0.171 |
| GAAACGCA | 0.018 |
| CCTCTCAC | -0.0674 |

| Sequence | PBM E-score |
| --- | --- |
| CACAGAAA | 0.0466 |
| CCCAAGTC | -0.196 |
| GACTATGA | 0.0424 |
| CGGCATAA | 0.0918 |
| CGTTGTGA | 0.11 |
| GTAGGAAC | 0.131 |
| GAATACCA | 0.133 |
| AAAGGGGC | -0.12 |
| TCCCTACA | -0.0112 |
| AAGCCGGG | 0.0523 |
| CTGGAAAG | -0.133 |
| ACATATCA | 0.234 |
| CGAGTGGC | -0.203 |
| CTATGGAA | -0.0317 |
| CTTCCGCA | 0.0248 |
| CTTGGTTC | 0.0483 |
| CACAATAC | 0.0365 |
| ACGTCGTC | 0.0395 |
| AGCCAAAA | 0.0723 |
| AGTTCGTA | 0.13 |
| TGCGTCCA | 0.0378 |
| ACCTTGGC | -0.233 |
| CAAACATG | -0.0319 |
| TGACGTAA | 0.138 |
| AGGATTTG | 0.0147 |

4 entries from above in another layout:
AATATAGT
  PBM E-score = 0.281
TCGCGCAA
  PBM E-score = 0.27
CTTTTCAC
  PBM E-score = 0.126
CTCAATAA
  PBM E-score = -0.0752

Five entries from above, bar-delimited.
Sequence | PBM E-score
CTGGAAAG | -0.133
ACATATCA | 0.234
CGAGTGGC | -0.203
CTATGGAA | -0.0317
CTTCCGCA | 0.0248

Next entries.

| Sequence | PBM E-score |
| --- | --- |
| CGCCTTGC | -0.164 |
| CAGGCACC | -0.189 |
| ATTTAGGA | 0.0482 |
| AAGAGTCC | -0.14 |
| GCCTCTGA | -0.113 |
| ATAATGAA | 0.166 |
| ATCCCTGC | -0.114 |
| AATAATTC | 0.18 |
| ACCCAGAA | 0.141 |
| AGGACTAC | -0.238 |
| AAATTAGG | 0.13 |
| CCGCTCTC | -0.128 |
| ACATGCCA | -0.0133 |
| CTCGTCAG | -0.0379 |
| CGGTCCCC | -0.23 |
| ACGCGGAG | -0.061 |
| GACCAGAC | -0.0441 |
| GGGCCGTA | -0.0173 |
| AGGAGATA | -0.137 |
| CGTCTTAG | -0.177 |
| AACTCAGG | -0.0816 |
| CGCTGTAG | -0.0927 |
